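Whole-parasite assay of Trypanosoma brucei over 72 hours; the read-out is not stated. Compounds at 10 µM. The record gives no direction; compounds that gave an IC50 in retests scored well above the rest, so higher reads as stronger inhibition. Values scatter widely below zero; nearly all retest evidence comes from the higher of the two concentrations used. Size under these conditions: about 2,700 compounds, about 14 of them at 50% or above in at least one test.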

The filed quantity is “Percent Effect” (%).
The controls that fix the scale are not given in the record; negative values are as filed.
This is an unselected part of the compounds tested.

{"structure": "O=C(Nc1ccc(CCN2CCC(O)CC2)cc1)C1CCCCC1", "Percent Effect": -6.877}
{"structure": "CCc1n[nH]c(C2CN(CCCS(C)(=O)=O)CCO2)n1", "stereo": "configuration not stated", "Percent Effect": -48.12}
{"structure": "CCc1nnc2n1CCN(CC(O)c1ccc3c(c1)OCCO3)C2", "stereo": "configuration not stated", "Percent Effect": -76.05}
{"structure": "CSc1ccc(CN(C)C(=O)c2cc3c([nH]c2=O)CCCC3=O)cc1", "Percent Effect": -71.71}
{"structure": "CC(Cn1ccnc1)NC(=O)N1CCCN(Cc2cccs2)CC1", "stereo": "configuration not stated", "Percent Effect": -28.13}
{"structure": "CN1CCN(c2cc(CNC(=O)c3cccnc3O)ccn2)CC1", "Percent Effect": 4.188}
{"structure": "O=S(=O)(CCN1CCc2c(ncn2C2CC2)C1)c1ccccc1", "Percent Effect": -14.07}
{"structure": "O=C(c1cn(-c2ccc(F)cc2)nn1)N1CCCC(n2cccn2)C1", "stereo": "configuration not stated", "Percent Effect": -33.86}
{"structure": "Cc1nn(C)c(N(C)C)c1CNCc1ccc(OCCN(C)C)cc1", "Percent Effect": 19.05}
{"structure": "Cc1ccc(F)cc1S(=O)(=O)NCc1cccc(C(=O)N2CCCC2)c1", "Percent Effect": -64.48}
{"structure": "Cc1cnn(CC2CCCCN2Cc2cc(C)no2)c1", "stereo": "configuration not stated", "Percent Effect": -30.4}
{"structure": "CC(OCC1CC1)C(=O)N1CCCN(Cc2nccn2C(C)C)CC1", "stereo": "configuration not stated", "Percent Effect": -25.51}
{"structure": "CC(Cn1cccn1)NC(=O)Nc1nncs1", "stereo": "configuration not stated", "Percent Effect": -41.92}
{"structure": "CCn1nc2c(cc1=O)CN(Cc1nc(-c3cccnc3)no1)CC2", "Percent Effect": -67.56}
{"structure": "CCNc1cc2c(nn1)CCN(C(=O)c1cc3cccc(C)c3o1)C2", "Percent Effect": -32.26}
{"structure": "Cc1nc(C)n(CC2CCCN2CCCOc2ccc(C#N)cc2)n1", "stereo": "configuration not stated", "Percent Effect": -4.394}
{"structure": "CCOc1ncccc1CNC(=O)Nc1cc(C)nn1C", "Percent Effect": -4.638}
{"structure": "CCN1CCC(CNC(=O)Nc2cc(C)on2)C1", "stereo": "configuration not stated", "Percent Effect": -34.54}
{"structure": "Cc1nnc2n1CCN(CCOc1ccc(C(C)(C)C)cc1)C2", "Percent Effect": -39.21}
{"structure": "Cc1csc(CNC(=O)N(C)Cc2ccncc2)n1", "Percent Effect": -31.12}
{"structure": "CCc1csc(C2CCCN(C(=O)c3ccc4[nH]nnc4c3)C2)n1", "stereo": "configuration not stated", "Percent Effect": -30.73}
{"structure": "Cc1cc(CN2CCCC(Cn3cncn3)C2)on1", "stereo": "configuration not stated", "Percent Effect": -47.54}
{"structure": "COc1ccccc1N1CCN(C(=O)NC(C)c2nncn2C)CC1", "stereo": "configuration not stated", "Percent Effect": -38.72}
{"structure": "Cc1cc(CNC(=O)Cc2c(C)nc3cc(=O)[nH]n3c2C)no1", "Percent Effect": -1.493}
{"structure": "COc1ccc(Br)c(C(=O)NC(CC(=O)O)c2cccs2)c1", "stereo": "configuration not stated", "Percent Effect": -2.521}
{"structure": "O=C(CS(=O)(=O)Cc1ccccc1)NC1CCCCNC1=O", "stereo": "configuration not stated", "Percent Effect": -58.98}
{"structure": "N#Cc1ccc(OCCN2CCn3c(nnc3C3CC3)C2)cc1", "Percent Effect": -21.64}
{"structure": "Cc1nc(CN2CCCN(C(=O)c3sccc3C#N)CC2)cs1", "Percent Effect": -31.52}
{"structure": "CCCNC(=O)NC(=O)CN1CCN(Cc2nccn2CC)CC1", "Percent Effect": -26.22}
{"structure": "COc1ccccc1C(O)CNC(=O)Nc1cccnc1OC", "stereo": "configuration not stated", "Percent Effect": -5.486}
{"structure": "O=C(c1cccc2ncccc12)N1CCCC(n2ccnc2)C1", "stereo": "configuration not stated", "Percent Effect": -19.6}
{"structure": "Cc1cccc(CNC(C)c2ccc(OCC(=O)NC3CC3)cc2)c1", "stereo": "configuration not stated", "Percent Effect": 9.963}
{"structure": "Cc1ccc(CC(=O)N2CCCN(Cc3nccn3C)CC2)cn1", "Percent Effect": -63.25}
{"structure": "COc1cc(C(=O)N2CCCC2c2noc(C(C)C)n2)on1", "stereo": "configuration not stated", "Percent Effect": -12.52}
{"structure": "CC(C)c1nccn1C1CCCN(C(=O)c2cc(C(N)=O)cs2)C1", "stereo": "configuration not stated", "Percent Effect": -28.71}
{"structure": "Cc1nc(CN2CCN(C(C)c3nc(C4CC4)no3)CC2)no1", "stereo": "configuration not stated", "Percent Effect": -56.96}
{"structure": "CCOCc1ccc(CNc2cncc(-n3cccn3)n2)cc1", "Percent Effect": -32.35}
{"structure": "CS(=O)(=O)NC1CCN(C(=O)NCCc2ccccn2)CC1", "Percent Effect": -92.59}
{"structure": "Cc1nc(C2CCCN2Cc2nc(C3CC3)no2)no1", "stereo": "configuration not stated", "Percent Effect": -74.19}
{"structure": "COC(=O)Nc1ccc(CNc2cncc(-n3cccn3)n2)cc1", "Percent Effect": -27.23}

2 of the entries, repeated:

structure	Percent Effect
CSc1ccc(CN(C)C(=O)c2cc3c([nH]c2=O)CCCC3=O)cc1	-71.71
Cc1ccc(CC(=O)N2CCCN(Cc3nccn3C)CC2)cn1	-63.25

From ChEMBL document CHEMBL3988442, “University of Dundee, Small-Polar-MMV Screening Library” (2021).